We go through three substances from paper PMC5061411.

Chains of the proteins cited; added tags and fusions are not shown.
UniProt P60881: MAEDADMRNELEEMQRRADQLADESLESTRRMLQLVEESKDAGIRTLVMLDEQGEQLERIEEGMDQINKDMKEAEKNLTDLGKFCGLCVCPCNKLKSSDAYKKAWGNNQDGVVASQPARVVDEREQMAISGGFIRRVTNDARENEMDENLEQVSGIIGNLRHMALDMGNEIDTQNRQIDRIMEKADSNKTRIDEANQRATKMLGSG
UniProt P61265: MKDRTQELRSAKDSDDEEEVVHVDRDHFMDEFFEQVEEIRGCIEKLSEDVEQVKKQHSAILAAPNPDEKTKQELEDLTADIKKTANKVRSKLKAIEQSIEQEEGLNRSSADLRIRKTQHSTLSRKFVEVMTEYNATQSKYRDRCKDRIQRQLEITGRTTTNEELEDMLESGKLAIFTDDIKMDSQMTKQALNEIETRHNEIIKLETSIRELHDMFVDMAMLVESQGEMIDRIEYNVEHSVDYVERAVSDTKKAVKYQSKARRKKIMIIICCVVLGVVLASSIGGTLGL
UniProt P60879: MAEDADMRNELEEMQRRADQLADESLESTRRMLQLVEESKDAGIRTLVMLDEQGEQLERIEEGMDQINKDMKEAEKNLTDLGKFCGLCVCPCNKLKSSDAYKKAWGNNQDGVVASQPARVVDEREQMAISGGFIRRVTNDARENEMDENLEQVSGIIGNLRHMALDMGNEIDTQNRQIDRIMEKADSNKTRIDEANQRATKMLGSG
UniProt P60953: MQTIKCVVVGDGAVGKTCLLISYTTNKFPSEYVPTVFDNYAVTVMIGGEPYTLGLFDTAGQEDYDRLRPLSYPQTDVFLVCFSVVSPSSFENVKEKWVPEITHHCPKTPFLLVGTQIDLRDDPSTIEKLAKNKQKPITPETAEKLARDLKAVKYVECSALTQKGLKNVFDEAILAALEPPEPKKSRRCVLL
UniProt Q9WU70: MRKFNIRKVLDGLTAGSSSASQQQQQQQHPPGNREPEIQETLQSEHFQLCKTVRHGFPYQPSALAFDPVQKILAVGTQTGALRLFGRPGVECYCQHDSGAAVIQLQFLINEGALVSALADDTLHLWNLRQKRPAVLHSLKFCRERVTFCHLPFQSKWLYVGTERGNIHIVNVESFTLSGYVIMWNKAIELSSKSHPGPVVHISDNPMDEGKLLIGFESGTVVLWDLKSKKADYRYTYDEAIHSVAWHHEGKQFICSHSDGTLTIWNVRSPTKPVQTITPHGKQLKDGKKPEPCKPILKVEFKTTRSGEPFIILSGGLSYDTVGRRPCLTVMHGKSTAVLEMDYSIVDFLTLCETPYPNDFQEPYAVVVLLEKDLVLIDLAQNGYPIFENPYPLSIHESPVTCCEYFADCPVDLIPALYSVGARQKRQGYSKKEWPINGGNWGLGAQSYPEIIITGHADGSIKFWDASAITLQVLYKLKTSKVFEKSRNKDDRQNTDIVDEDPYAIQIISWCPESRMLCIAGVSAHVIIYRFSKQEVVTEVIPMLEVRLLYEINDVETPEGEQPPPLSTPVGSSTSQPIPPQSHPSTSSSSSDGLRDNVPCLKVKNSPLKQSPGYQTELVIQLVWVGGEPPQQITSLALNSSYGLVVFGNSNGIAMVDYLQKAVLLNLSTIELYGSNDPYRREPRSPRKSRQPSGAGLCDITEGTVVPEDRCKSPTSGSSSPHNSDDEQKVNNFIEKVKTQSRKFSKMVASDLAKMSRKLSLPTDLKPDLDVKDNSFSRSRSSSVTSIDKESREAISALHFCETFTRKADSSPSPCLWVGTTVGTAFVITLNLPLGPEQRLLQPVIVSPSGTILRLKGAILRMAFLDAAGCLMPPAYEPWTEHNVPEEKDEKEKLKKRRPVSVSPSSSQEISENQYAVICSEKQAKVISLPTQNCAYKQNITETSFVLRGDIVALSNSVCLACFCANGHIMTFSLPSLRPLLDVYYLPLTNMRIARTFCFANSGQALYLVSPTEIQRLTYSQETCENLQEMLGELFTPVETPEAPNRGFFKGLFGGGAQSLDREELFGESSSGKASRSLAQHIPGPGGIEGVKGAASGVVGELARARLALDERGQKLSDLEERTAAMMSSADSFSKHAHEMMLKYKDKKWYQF

Results are given in words; binding and its absence hold for the method and conditions named. In cells and extracts the contact can be indirect. Some results given as binding are weak or reduced against the parent protein; the word gives no strength.

For test [1], the target named is SNAP25 (rat (endogenous in rat posterior pituitary)) (UniProt P60881). As to the kind of experiment: co-IP; precleared rat posterior pituitary lysate; IP antibodies to tomosyn, SNAP25, syntaxin 1A or syntaxin 1B on protein A/G Sepharose or ImmunoCruz IP matrix, 4°C; control IgG; washed four times with the wash buffer of the in vitro binding assay; western blot.
The target of test [2] is syntaxin 1B (rat (endogenous in rat posterior pituitary)) (UniProt P61265). The test is described as above.
The target of another test is GST-SNAP25 (mouse) (UniProt P60879). Kind of test: pull-down; GST-SNAP25 or GST-cdc42-GTPγS with glutathione Sepharose 4B mixed with precleared rat posterior pituitary lysate overnight at 4°C; washed four times with 10 mM HEPES-NaOH (pH 7.4), 1 mM CaCl2, 50 mM NaCl, 5 mM MgCl2; eluted in SDS sample buffer; silver staining and western blot with anti-tomosyn; only the target purified. In general terms: In western blotting, separated proteins are transferred to a membrane and probed.

The target of another test is GST-cdc42-GTPγS (UniProt P60953). The description is as above.
For test [3], the target named is tomosyn-1 (syntaxin binding protein 5) (rat (endogenous in rat posterior pituitary)) (UniProt Q9WU70). As to the kind of experiment: co-IP; precleared rat posterior pituitary lysate; IP antibodies to tomosyn, SNAP25, syntaxin 1A or syntaxin 1B on protein A/G Sepharose or ImmunoCruz IP matrix, 4°C; control IgG; washed four times with the wash buffer of the in vitro binding assay; western blot.

For “tomosyn-1 (syntaxin binding protein 5) (from UniProt Q9WU70 1-1152)”, the binding entry is “binds” in test [1], “binds” in test [2], “binds” with GST-SNAP25 (mouse) and “no binding” with GST-cdc42-GTPγS.

Consider SNAP25 (from UniProt P60881 1-206), for which the binding entry in test [3] is listed as “binds”.

Turning to syntaxin 1B (from UniProt P61265 1-288), the binding result in test [3] was “binds”.
